Strings that start with PEPTIDE1 are HELM notation: dots part the residues, brackets hold end groups and non-standard residues.
Assay: general procedure: Fmoc solid-phase peptide synthesis
Details: whole synthesis

PEPTIDE1{P.V.R.S.S.N.C.A}$$$$V2.0
crude HPLC purity (220 nm): 89%
crude yield (overall): ~30%

Source: paper PMC9230030 (Pharmaceuticals, 2022)
